{
  "source": "patent US5258492A",
  "about": "(The Administrators of the Tulane Educational Fund, priority 1991, dated 1993)",
  "assay": "general procedure: Boc solid-phase peptide synthesis; benzhydrylamine HCl resin, about 1 meq NH2/g (Advanced ChemTech); DIC",
  "conditions": "whole synthesis, analytical HPLC (HP-1090, W-Porex C18), TFA or HCl salt",
  "note": "Square brackets hold non-standard residues; d marks the D form. Ends that are not written are not given here. pGlu = O=C1CC[C@@H](C(=O)O)N1",
  "data": [
    {"substance": "[pGlu]HWSY", "values": [
      {"measurement": "final HPLC purity", "result": ">95", "unit": "%"}
    ]}
  ]
}
